Source: US9834564B2, “Substituted quinolines as PDE-10 inhibitors” (priority 2010, dated 2017)
At least one structure is not confirmed: it was looked up by name or label, or the drawing left a doubt.

By UniProt entry, the sequences of proteins in these tests, tags left out. Where a name states a change or a piece, a line headed by the entry shows the natural chain unless it says otherwise.
UniProt Q9Y233: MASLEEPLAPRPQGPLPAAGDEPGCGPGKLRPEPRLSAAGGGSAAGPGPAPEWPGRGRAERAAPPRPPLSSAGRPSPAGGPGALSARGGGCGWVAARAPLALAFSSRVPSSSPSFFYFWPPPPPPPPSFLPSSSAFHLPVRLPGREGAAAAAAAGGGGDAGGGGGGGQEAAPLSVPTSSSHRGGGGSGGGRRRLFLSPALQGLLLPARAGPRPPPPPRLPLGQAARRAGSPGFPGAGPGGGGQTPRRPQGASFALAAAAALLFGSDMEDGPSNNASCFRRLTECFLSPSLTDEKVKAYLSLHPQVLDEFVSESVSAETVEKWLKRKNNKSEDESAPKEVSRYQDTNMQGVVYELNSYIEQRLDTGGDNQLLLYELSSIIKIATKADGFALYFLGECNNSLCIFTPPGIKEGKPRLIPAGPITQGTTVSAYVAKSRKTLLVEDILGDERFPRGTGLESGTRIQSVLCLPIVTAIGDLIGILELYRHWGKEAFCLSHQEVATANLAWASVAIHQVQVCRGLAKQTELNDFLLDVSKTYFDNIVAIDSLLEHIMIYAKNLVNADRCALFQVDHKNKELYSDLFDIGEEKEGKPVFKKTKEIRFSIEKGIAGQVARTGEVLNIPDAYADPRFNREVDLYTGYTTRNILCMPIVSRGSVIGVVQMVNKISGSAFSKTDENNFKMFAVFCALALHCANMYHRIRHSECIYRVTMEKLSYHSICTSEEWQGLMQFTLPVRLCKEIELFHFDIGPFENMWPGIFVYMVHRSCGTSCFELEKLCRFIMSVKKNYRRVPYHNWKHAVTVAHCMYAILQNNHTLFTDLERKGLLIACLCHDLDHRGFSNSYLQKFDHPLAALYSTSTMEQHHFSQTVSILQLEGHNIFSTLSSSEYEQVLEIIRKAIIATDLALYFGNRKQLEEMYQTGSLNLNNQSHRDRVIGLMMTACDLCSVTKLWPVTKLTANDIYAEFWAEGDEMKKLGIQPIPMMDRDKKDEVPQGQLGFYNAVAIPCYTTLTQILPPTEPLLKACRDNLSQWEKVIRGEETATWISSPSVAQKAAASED

Target: HEK293 cells over-expressing PDE-10A (Homo sapiens (Human), UniProt Q9Y233)
Experiment: whole cell PDE-10 assay, intracellular cGMP in HEK293 cells over-expressing PDE-10A
Type: cell-based
Details: concentration elevating intracellular cyclic nucleotide 300% above baseline; HEK293 over-expressing PDE-10A, 30 min compound, 200 μM sodium nitroprusside 2 min

Cn1c(CCc2cnc3c(Cl)ccc(Cl)c3n2)nc2c3cccnc3ccc21 [Compound 149]
PDE-10 EC300 (μM): ++++ (IC50 or EC300<0.5 μM ++++)
